No end group written: not given here.
Tested on: HLA Class II alleles
Assay: HLA Class II phenotypic coverage in a worldwide population calculated from alleles found to bind in vitro
Parameters: species or system human

CC[C@H](C)[C@H](NC(=O)CNC(=O)[C@@H](N)CCCNC(=N)N)C(=O)N[C@@H](CCC(=O)O)C(=O)N[C@@H](Cc1ccc(O)cc1)C(=O)N[C@H](C(=O)N[C@@H](CCC(N)=O)C(=O)N[C@@H](Cc1c[nH]cn1)C(=O)N[C@@H](CC(N)=O)C(=O)NCC(=O)N[C@H](C(=O)N[C@H](C(=O)N[C@@H](CCC(N)=O)C(=O)N[C@@H](CCC(=O)O)C(=O)N[C@@H](CO)C(=O)O)C(C)C)C(C)C)[C@@H](C)CC [pep-025]
Number of alleles (Cutoff 1000 nM): 12
Number of alleles (Cutoff: 300 nM): 6

CC[C@H](C)[C@H](NC(=O)[C@H](CO)NC(=O)[C@@H]1CCCN1C(=O)[C@H](CCC(=O)O)NC(=O)[C@H](CO)NC(=O)CNC(=O)[C@H](Cc1c[nH]cn1)NC(=O)[C@H](CO)NC(=O)CN)C(=O)N[C@H](C(=O)N[C@@H](Cc1c[nH]cn1)C(=O)N[C@@H](CCCNC(=N)N)C(=O)NCC(=O)N[C@@H](CCCCN)C(=O)N1CCC[C@H]1C(=O)N[C@@H](Cc1ccccc1)C(=O)N[C@@H](CCC(N)=O)C(=O)N[C@@H](CC(C)C)C(=O)N[C@@H](CCC(=O)O)C(=O)N[C@@H](C)C(=O)O)[C@@H](C)CC [pep-090]
Number of alleles (Cutoff 1000 nM): 8
Number of alleles (Cutoff: 300 nM): 6

CC[C@H](C)[C@H](NC(=O)[C@H](CCSC)NC(=O)[C@H](CCCNC(=N)N)NC(=O)[C@H](Cc1ccccc1)NC(=O)[C@H](CCCCN)NC(=O)[C@@H](NC(=O)[C@H](CCSC)NC(=O)[C@H](CC(N)=O)NC(=O)[C@H](Cc1ccc(O)cc1)NC(=O)[C@@H](NC(=O)[C@@H](N)CCC(=O)O)[C@@H](C)CC)C(C)C)C(=O)N[C@@H](C)C(=O)NCC(=O)N[C@@H](CCC(N)=O)C(=O)N[C@@H](CCC(=O)O)C(=O)O [pep-117]
Number of alleles (Cutoff 1000 nM): 14
Number of alleles (Cutoff: 300 nM): 10

CC[C@H](C)[C@H](NC(=O)CNC(=O)[C@@H](N)CCCNC(=N)N)C(=O)N[C@@H](CCC(=O)O)C(=O)N[C@@H](Cc1ccc(O)cc1)C(=O)N[C@H](C(=O)N[C@@H](CCC(N)=O)C(=O)N[C@@H](Cc1c[nH]cn1)C(=O)N[C@@H](CC(N)=O)C(=O)NCC(=O)N[C@H](C(=O)N[C@H](C(=O)N[C@@H](CCC(N)=O)C(=O)N[C@@H](CCC(=O)O)C(=O)N[C@@H](CO)C(=O)N[C@@H](Cc1ccc(O)cc1)C(=O)N[C@@H](Cc1ccc(O)cc1)C(=O)N[C@@H](CCCNC(=N)N)C(=O)N[C@@H](Cc1ccc(O)cc1)C(=O)N[C@H](C(=O)N[C@@H](C)C(=O)N[C@@H](CCCNC(=N)N)C(=O)O)C(C)C)C(C)C)C(C)C)[C@@H](C)CC [pep-123]
Number of alleles (Cutoff 1000 nM): 16
Number of alleles (Cutoff: 300 nM): 12

CC[C@H](C)[C@H](NC(=O)CNC(=O)[C@@H](NC(=O)[C@@H](NC(=O)[C@@H](NC(=O)[C@H](C)NC(=O)[C@@H](NC(=O)[C@H](C)NC(=O)[C@H](CO)NC(=O)[C@H](Cc1c[nH]cn1)NC(=O)[C@@H](NC(=O)[C@H](CCC(N)=O)NC(=O)[C@H](C)NC(=O)[C@H](CC(C)C)NC(=O)[C@H](C)NC(=O)[C@H](CCC(=O)O)NC(=O)[C@@H](N)CCCNC(=N)N)[C@@H](C)O)[C@@H](C)CC)C(C)C)[C@@H](C)CC)[C@@H](C)CC)C(=O)N[C@@H](CCCCN)C(=O)N[C@@H](CC(=O)O)C(=O)N[C@@H](CC(C)C)C(=O)N[C@@H](CC(=O)O)C(=O)N[C@@H](C)C(=O)O [pep-130]
Number of alleles (Cutoff 1000 nM): 16
Number of alleles (Cutoff: 300 nM): 11

ATESAYLAYRNTSLD [pep-022]
Number of alleles (Cutoff 1000 nM): 8
Number of alleles (Cutoff: 300 nM): 6

DNGYGYFAANIDLMMIEE [pep-010]
Number of alleles (Cutoff 1000 nM): 20
Number of alleles (Cutoff: 300 nM): 16

ESAYLAYRNQSLDLAE [pep-009]
Number of alleles (Cutoff 1000 nM): 13
Number of alleles (Cutoff: 300 nM): 10

GSGSSWAFSGVAATESAYLA [pep-044]
Number of alleles (Cutoff 1000 nM): 17
Number of alleles (Cutoff: 300 nM): 12

GSHGSDPSIIHRGKPFTLEA [pep-102]
Number of alleles (Cutoff 1000 nM): 8
Number of alleles (Cutoff: 300 nM): 7

HAVNIVGYSNAQGVDYWIVR [pep-058]
Number of alleles (Cutoff 1000 nM): 15
Number of alleles (Cutoff: 300 nM): 12

HRGKPFQLEAVFEANQNTKT [pep-091]
Number of alleles (Cutoff 1000 nM): 10
Number of alleles (Cutoff: 300 nM): 5

IEYIQHNGVVQESYYRYVAR [pep-049]
Number of alleles (Cutoff 1000 nM): 16
Number of alleles (Cutoff: 300 nM): 9

IEYIQQNGVVEERSYPYVAR [pep-075]
Number of alleles (Cutoff 1000 nM): 10
Number of alleles (Cutoff: 300 nM): 5

KSENVVVTVKLVGDNGVLAS [pep-109]
Number of alleles (Cutoff 1000 nM): 7
Number of alleles (Cutoff: 300 nM): 6

LVGDNGVLASAIATHAKIRD [pep-110]
Number of alleles (Cutoff 1000 nM): 12
Number of alleles (Cutoff: 300 nM): 8

LVKGQQYDIKYTWNVPKIAPK [pep-131]
Number of alleles (Cutoff 1000 nM): 9
Number of alleles (Cutoff: 300 nM): 6

NGYGYFAANIDLMM [pep-011]
Number of alleles (Cutoff 1000 nM): 15
Number of alleles (Cutoff: 300 nM): 9

NHEIKKVLVPGSHGSEPSII [pep-089]
Number of alleles (Cutoff 1000 nM): 2
Number of alleles (Cutoff: 300 nM): 2

QESYYRYVAREQSSRR [pep-122]
Number of alleles (Cutoff 1000 nM): 10
Number of alleles (Cutoff: 300 nM): 6

QESYYRYVAREQSSRRPNAQ [pep-050]
Number of alleles (Cutoff 1000 nM): 4
Number of alleles (Cutoff: 300 nM): 2

QQYDIKYTWNVPKIA [pep-031]
Number of alleles (Cutoff 1000 nM): 14
Number of alleles (Cutoff: 300 nM): 7

VMGDDGVLASAIATHAKIRD [pep-099]
Number of alleles (Cutoff 1000 nM): 8
Number of alleles (Cutoff: 300 nM): 5

VMGDNGVLASAIATHAKIRD [pep-125]
Number of alleles (Cutoff 1000 nM): 6
Number of alleles (Cutoff: 300 nM): 4

VQESYYRYVAREQSSRRPNAQ [pep-124]
Number of alleles (Cutoff 1000 nM): 5
Number of alleles (Cutoff: 300 nM): 3

YPPNANKIREALAQTHSAIA [pep-053]
Number of alleles (Cutoff 1000 nM): 6
Number of alleles (Cutoff: 300 nM): 5

— US20160251403A1, “PEPTIDE COMBINATIONS AND USES THEREOF IN TREATING DUST MITE ALLERGY” (ALK-ABELLO A/S, priority 2013, published 2016)
